Assay: L-isoleucine therapy for 10 weeks in postmenopausal women: serum folate and vitamin B12 levels
Type: in vivo, human
Settings: associated with L-isoleucine therapy
Protocol: L-isoleucine therapy (3-5 grams/day divided into two doses per day) was administered to 17 postmenopausal women for 10 weeks. The L-isoleucine therapy was associated with an 11% average reduction in serum homocysteine levels among 14 post menopausal woman experiencing hot flashes.
None of the participants had clinically low folate or B12 at baseline or while on treatment.

CC[C@H](C)[C@H](N)C(=O)O [L-isoleucine]
changes in serum folate levels: no significant changes
changes in serum vitamin B12 levels: no significant changes

Reference: patent publication US20060252699A1, “Method for lowering serum homocysteine” (priority 2004, published 2006)
